Measurements reported in PubChem BioAssay AID1259405 (NCATS, 2018).

Test: 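Silenced genes that increase secreted GFP made by CHO cells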 (primary screen)
Cells: Chinese hamster CHO-K1 ovary cells with stable secreted eGFP expression
Knock-down reagent: single siRNA against mouse genes, 0.8 pmol siRNA per well (2 µl of 400 nM stock)
Time to read-out: 3 days
Read-out: 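Percent of the per-plate non-targeting control median for intracellular GFP per well by laser scanning cytometry and for cell viability by ATP luminescence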
Scale: GFP, % of control: higher = more GFP per well, higher productivity; viability (ATP), % of control: higher = more viable cells (more ATP)
Call rule: 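a knock-down is called active if GFP reaches 120% or more of non-targeting control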
In all, the deposit lists about 50,000 reagents; below is a part drawn at random. Over the whole deposit, about 4,000 (8%) are marked active. 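Mouse siRNA library applied to hamster cells; one well for each siRNA.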 Reagents against one gene are numbered here.

For Fstl4 #1, what was measured?
GFP, % of control: 83; viability (ATP), % of control: 71; Outcome: inactive

With Fstl4 #2, what was measured?
GFP, % of control: 84; viability (ATP), % of control: 67.2; Outcome: inactive

Which result is listed for Fstl4 #3?
GFP, % of control: 72.5; viability (ATP), % of control: 61.2; Outcome: inactive

What is on record for AI987944 #1?
GFP, % of control: 71.8; viability (ATP), % of control: 54.9; Outcome: inactive

For AI987944 #2, what does the deposit list?
GFP, % of control: 55; viability (ATP), % of control: 62.1; Outcome: inactive

For AI987944 #3, how do the results read?
GFP, % of control: 86.2; viability (ATP), % of control: 96; Outcome: inactive

For Or10ak14 #1, how do the results read?
GFP, % of control: 64.2; viability (ATP), % of control: 76.7; Outcome: inactive

What is on record for Or10ak14 #2?
GFP, % of control: 77.8; viability (ATP), % of control: 89.8; Outcome: inactive

With Or10ak14 #3, how do the results read?
GFP, % of control: 67.7; viability (ATP), % of control: 60.6; Outcome: inactive

For Zc3h18 #1, what was measured?
GFP, % of control: 114; viability (ATP), % of control: 69.5; Outcome: inactive

With Zc3h18 #2, what does the deposit list?
GFP, % of control: 49.8; viability (ATP), % of control: 87.9; Outcome: inactive

What did the screen give for Zc3h18 #3?
GFP, % of control: 122; viability (ATP), % of control: 113; Outcome: active

With Tbc1d5 #1, how do the results read?
GFP, % of control: 61.1; viability (ATP), % of control: 52.5; Outcome: inactive

With Tbc1d5 #2, how do the results read?
GFP, % of control: 41.8; viability (ATP), % of control: 33.4; Outcome: inactive

How did the screen score Tbc1d5 #3?
GFP, % of control: 88.1; viability (ATP), % of control: 89.9; Outcome: inactive

How did the screen score Fbxo6 #1?
GFP, % of control: 77.5; viability (ATP), % of control: 102; Outcome: inactive

With Fbxo6 #2, how do the results read?
GFP, % of control: 126; viability (ATP), % of control: 90.6; Outcome: active

What did the screen give for Osgepl1 #1?
GFP, % of control: 74.9; viability (ATP), % of control: 87.6; Outcome: inactive

For Osgepl1 #2, what was measured?
GFP, % of control: 77.7; viability (ATP), % of control: 80.8; Outcome: inactive

With Osgepl1 #3, how do the results read?
GFP, % of control: 91.1; viability (ATP), % of control: 75.8; Outcome: inactive

With Tex18 #1, what does the deposit list?
GFP, % of control: 39.4; viability (ATP), % of control: 39.5; Outcome: inactive

How did the screen score Tex18 #2?
GFP, % of control: 145; viability (ATP), % of control: 140; Outcome: active

Which result is listed for Tex18 #3?
GFP, % of control: 129; viability (ATP), % of control: 138; Outcome: active

Targets above whose target name starts with T or t (6):
Tbc1d5 #1 | GFP, % of control = 61.1; viability (ATP), % of control = 52.5; Outcome = inactive
Tbc1d5 #2 | GFP, % of control = 41.8; viability (ATP), % of control = 33.4; Outcome = inactive
Tbc1d5 #3 | GFP, % of control = 88.1; viability (ATP), % of control = 89.9; Outcome = inactive
Tex18 #1 | GFP, % of control = 39.4; viability (ATP), % of control = 39.5; Outcome = inactive
Tex18 #2 | GFP, % of control = 145; viability (ATP), % of control = 140; Outcome = active
Tex18 #3 | GFP, % of control = 129; viability (ATP), % of control = 138; Outcome = active

The list goes on.
What is on record for 4930483J18Rik #1?
GFP, % of control: 122; viability (ATP), % of control: 56.7; Outcome: active

How did the screen score 4930483J18Rik #2?
GFP, % of control: 80.6; viability (ATP), % of control: 87.8; Outcome: inactive

With 4930483J18Rik #3, how do the results read?
GFP, % of control: 84.7; viability (ATP), % of control: 88.3; Outcome: inactive

For Ube2q2 #1, what was measured?
GFP, % of control: 69.9; viability (ATP), % of control: 68; Outcome: inactive

Which result is listed for Ube2q2 #2?
GFP, % of control: 85.1; viability (ATP), % of control: 59.8; Outcome: inactive

What did the screen give for Ube2q2 #3?
GFP, % of control: 92.1; viability (ATP), % of control: 118; Outcome: inactive

What did the screen give for Asb1 #1?
GFP, % of control: 118; viability (ATP), % of control: 44.9; Outcome: inactive

How did the screen score Asb1 #2?
GFP, % of control: 69.6; viability (ATP), % of control: 79.3; Outcome: inactive

What is on record for Asb1 #3?
GFP, % of control: 129; viability (ATP), % of control: 118; Outcome: active

For Isl1 #1, what was measured?
GFP, % of control: 70.3; viability (ATP), % of control: 90.2; Outcome: inactive

How did the screen score Isl1 #2?
GFP, % of control: 170; viability (ATP), % of control: 133; Outcome: active

For Isl1 #3, what was measured?
GFP, % of control: 60; viability (ATP), % of control: 88; Outcome: inactive

For Rufy1 #1, what was measured?
GFP, % of control: 123; viability (ATP), % of control: 85.2; Outcome: active

For Rufy1 #2, how do the results read?
GFP, % of control: 103; viability (ATP), % of control: 78; Outcome: inactive

Which result is listed for Rufy1 #3?
GFP, % of control: 71.2; viability (ATP), % of control: 68.2; Outcome: inactive

What did the screen give for Or11a4 #1?
GFP, % of control: 54.7; viability (ATP), % of control: 45.3; Outcome: inactive

Which result is listed for Or11a4 #2?
GFP, % of control: 73; viability (ATP), % of control: 71.6; Outcome: inactive

What did the screen give for Or11a4 #3?
GFP, % of control: 101; viability (ATP), % of control: 92.4; Outcome: inactive
